The values below come from PMC6925144, “A prospective compound screening contest identified broader inhibitors for Sirtuin 1” (Scientific Reports, 2019).

Sequences of proteins named here, by UniProt entry; tags and fusion partners are left off. Residues count along the entry.
UniProt Q96EB6, 2-747 limits assumed: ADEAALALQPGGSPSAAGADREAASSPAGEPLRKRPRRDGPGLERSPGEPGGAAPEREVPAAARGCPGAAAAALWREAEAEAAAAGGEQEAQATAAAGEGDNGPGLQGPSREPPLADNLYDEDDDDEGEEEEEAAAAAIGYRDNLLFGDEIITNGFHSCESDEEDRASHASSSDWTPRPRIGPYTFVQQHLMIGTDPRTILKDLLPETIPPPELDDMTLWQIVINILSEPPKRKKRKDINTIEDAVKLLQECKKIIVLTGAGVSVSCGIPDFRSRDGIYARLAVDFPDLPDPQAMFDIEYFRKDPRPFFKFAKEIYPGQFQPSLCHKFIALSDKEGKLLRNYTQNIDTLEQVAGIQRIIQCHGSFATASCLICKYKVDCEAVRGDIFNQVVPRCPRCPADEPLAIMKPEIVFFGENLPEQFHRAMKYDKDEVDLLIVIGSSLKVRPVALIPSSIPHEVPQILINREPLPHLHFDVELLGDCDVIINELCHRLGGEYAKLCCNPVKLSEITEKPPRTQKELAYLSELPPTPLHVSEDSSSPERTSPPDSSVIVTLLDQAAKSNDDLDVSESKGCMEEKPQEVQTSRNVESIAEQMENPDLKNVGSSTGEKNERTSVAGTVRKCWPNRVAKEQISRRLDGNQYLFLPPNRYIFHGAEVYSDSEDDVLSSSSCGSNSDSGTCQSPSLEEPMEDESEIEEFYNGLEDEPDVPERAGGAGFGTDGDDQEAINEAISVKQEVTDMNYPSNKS

Each structure is given as a SMILES string. Whole data set: some 3,200 compounds, median “TSA(with NAD+) / Primary screening (TSA) / delta Tm (K)” near -0.04, cut for the highest 2% near 0.37. The list shows a part of the results.

The target of this test is NAD-dependent deacetylase Sirtuin 1 (human, UniProt Q96EB6). The experiment in a line: primary screen, delta tm. Also on record: single well (n = 1, as 'the same TSA'). To be noted: 10 µM.
On to `COc1ccc(C(CNC=C2C(=O)NC(=S)NC2=O)N(C)C)cc1` (centres unmarked), for which the “TSA(with NAD+) / Primary screening (TSA) / delta Tm (K)” value is reported as -0.13 K.

Consider `CCCCCC(C)NC(=O)c1cccc(S(=O)(=O)N(C)c2ccc(OC)cc2)c1` (centres unmarked), for which the “TSA(with NAD+) / Primary screening (TSA) / delta Tm (K)” value worked out at 0.09 K.

For the compound `Cc1nc2ncnn2c(N2CCn3c(nnc3-c3ccccc3)C2)c1C`, the “TSA(with NAD+) / Primary screening (TSA) / delta Tm (K)” value is -0.02 K.

With `O=C(O)C1CC(=O)N(c2ccc(S(=O)(=O)Nc3cccc([N+](=O)[O-])c3)cc2)C1` (centres unmarked), the “TSA(with NAD+) / Primary screening (TSA) / delta Tm (K)” value is reported as -0.01 K.

With `CN1C(=O)c2oc3ccccc3c(=O)c2C1c1ccccc1F` (centres unmarked), the “TSA(with NAD+) / Primary screening (TSA) / delta Tm (K)” value is 0.01 K.

With `O=Cc1c[nH]nc1-c1ccc2c(c1)OCO2`, the “TSA(with NAD+) / Primary screening (TSA) / delta Tm (K)” value was -0.16 K.

`CCc1ccc(C(NCC(=O)Nc2oc(C)c3c(C)n[nH]c(=O)c23)C(C)C)cc1` (centres unmarked): the “TSA(with NAD+) / Primary screening (TSA) / delta Tm (K)” value is given as -0.05 K.

For the compound `O=Cc1cn(CCC(=O)O)nc1-c1ccccc1`, the “TSA(with NAD+) / Primary screening (TSA) / delta Tm (K)” value is -0.05 K.

`CN(c1ccccc1)S(=O)(=O)c1cccc(C(=O)NCCCOCCc2ccccc2)c1`: the “TSA(with NAD+) / Primary screening (TSA) / delta Tm (K)” value is -0.15 K.

`COc1cc2c(cc1OC)CN(C(=O)c1cccc(S(=O)(=O)Nc3ccc(F)cc3)c1)CC2`: the “TSA(with NAD+) / Primary screening (TSA) / delta Tm (K)” value is listed as -0.13 K.

For the compound `NC(=O)c1ccc(CNC2CCCCCC2)o1`, the “TSA(with NAD+) / Primary screening (TSA) / delta Tm (K)” value is recorded as -0.01 K.

Regarding `Oc1c(Br)cc2oc3c(c2c1/C=N/c1cccc2ccccc12)CCCC3`, the “TSA(with NAD+) / Primary screening (TSA) / delta Tm (K)” value came to 0.06 K.

Turning to `O=C1NC(=S)NC(=O)C1=CNc1ccc(Cl)c(Cl)c1`, the “TSA(with NAD+) / Primary screening (TSA) / delta Tm (K)” value is on record as -0.11 K.

Consider `C=C(CC)CN`, for which the “TSA(with NAD+) / Primary screening (TSA) / delta Tm (K)” value amounted to 0.02 K.

In the case of `Nc1ccnn1Cc1ccc(Cl)cc1Cl`, the “TSA(with NAD+) / Primary screening (TSA) / delta Tm (K)” value was -0.31 K.

For the compound `NCCCN`, the “TSA(with NAD+) / Primary screening (TSA) / delta Tm (K)” value is given as -0.14 K.

Regarding `COc1ccc(OC)c(NCCn2c(C)cn3c4c(=O)[nH]c(=O)n(C)c4nc23)c1`, the “TSA(with NAD+) / Primary screening (TSA) / delta Tm (K)” value was -0.03 K.

As to `OC(CNc1ncccn1)c1ccc(Cl)cc1` (centres unmarked), the “TSA(with NAD+) / Primary screening (TSA) / delta Tm (K)” value is listed as -0.04 K.

Turning to `Cc1nc(NCCc2ccccc2)sc1C(=O)O`, the “TSA(with NAD+) / Primary screening (TSA) / delta Tm (K)” value is -0.19 K.

Take `Cc1cccc(-c2cccc(CNC(=O)c3cccnc3S)c2)c1`: the “TSA(with NAD+) / Primary screening (TSA) / delta Tm (K)” value is given as 0.33 K.

As for `Cc1ccc(C(=O)OCC(=O)Nc2c(C)n(C)n(-c3ccccc3)c2=O)cc1O`, the “TSA(with NAD+) / Primary screening (TSA) / delta Tm (K)” value is -0.22 K.

In the case of `Cc1nn(Cc2ccc(Cl)cc2)c(Cl)c1-c1nc(-c2ccccc2)c(-c2ccccc2)[nH]1`, the “TSA(with NAD+) / Primary screening (TSA) / delta Tm (K)” value came out at 0.11 K.

Take `O=C(CSc1nnc(Nc2cccc(F)c2)s1)NCc1ccco1`: the “TSA(with NAD+) / Primary screening (TSA) / delta Tm (K)” value was -0.09 K.

In the case of `Cc1ccc(N(C)S(=O)(=O)c2cccc(C(=O)OCc3ccc(Cl)cc3)c2)cc1`, the “TSA(with NAD+) / Primary screening (TSA) / delta Tm (K)” value is listed as -0.03 K.

For the compound `Cc1nc(-c2ccc(CCNC(=O)c3ccc(NC(=O)c4cccs4)cc3)s2)cs1`, the “TSA(with NAD+) / Primary screening (TSA) / delta Tm (K)” value came out at 0.58 K.

For the compound `COc1ccc(CNCc2ccc(N3CCCC3=O)cc2)c(OC)c1`, the “TSA(with NAD+) / Primary screening (TSA) / delta Tm (K)” value is recorded as -0.11 K.

For the compound `Cn1c(=O)[nH]c2ccc(C(=O)O)cc21`, the “TSA(with NAD+) / Primary screening (TSA) / delta Tm (K)” value is recorded as 0.01 K.

In the case of `Cc1ccc(C(=O)C2=C(O)C(=O)N(CCCN3CCOCC3)C2c2cccc([N+](=O)[O-])c2)cc1` (centres unmarked), the “TSA(with NAD+) / Primary screening (TSA) / delta Tm (K)” value is -0.13 K.

As to `CC(C)(C)c1cc(NC(=O)CSc2nnc(NCc3ccco3)s2)on1`, the “TSA(with NAD+) / Primary screening (TSA) / delta Tm (K)” value is -0.02 K.

As for `COc1cc(CNC(=O)C2(C)CCOCC2)c2ccccc2n1`, the “TSA(with NAD+) / Primary screening (TSA) / delta Tm (K)” value is recorded as -0.02 K.

Turning to `COc1ccc(C(=O)C2=C(O)C(=O)N(CCCN3CCOCC3)C2c2cccs2)cc1C` (centres unmarked), the “TSA(with NAD+) / Primary screening (TSA) / delta Tm (K)” value is -0.09 K.

For `COC(=O)C[C@H](N)C(=O)O`, the “TSA(with NAD+) / Primary screening (TSA) / delta Tm (K)” value is recorded as 0.02 K.

Regarding `Cc1ccc(N)c(OCC(F)(F)F)c1`, the “TSA(with NAD+) / Primary screening (TSA) / delta Tm (K)” value is recorded as -0.18 K.

As to `Cc1ccc(-n2c(C)c(C)c3c(N)ncnc32)cc1`, the “TSA(with NAD+) / Primary screening (TSA) / delta Tm (K)” value is -0.11 K.

With `C[C@H](N)C(N)=O`, the “TSA(with NAD+) / Primary screening (TSA) / delta Tm (K)” value came to 0.16 K.

Take `CC(CC(=O)N1CCN(c2ccc3nccnc3n2)CC1)c1ccccc1` (centres unmarked): the “TSA(with NAD+) / Primary screening (TSA) / delta Tm (K)” value is on record as -0.06 K.

Take `CCN(C(=O)c1ccc(Br)cc1F)c1ccncc1`: the “TSA(with NAD+) / Primary screening (TSA) / delta Tm (K)” value turned out to be 0.06 K.

As for `CCc1cc2c(N3CCC(CCN4CCN(C)CC4)CC3)ncnc2s1`, the “TSA(with NAD+) / Primary screening (TSA) / delta Tm (K)” value is reported as -0.06 K.

Take `CN(c1cccc(Cl)c1)S(=O)(=O)c1cccc(C(=O)Nc2ccc(C(N)=O)cc2)c1`: the “TSA(with NAD+) / Primary screening (TSA) / delta Tm (K)” value is -0.08 K.

`NC(=O)c1cc(-c2ccccc2)nc2ccccc12`: the “TSA(with NAD+) / Primary screening (TSA) / delta Tm (K)” value is -0.08 K.

As to `O=C(O)CSc1ccc2c3c(cccc13)C(=O)c1ccccc1-2`, the “TSA(with NAD+) / Primary screening (TSA) / delta Tm (K)” value was -0.23 K.

With `Oc1ccc(N2CCN(c3ncnc4sc5c(c34)CCC5)CC2)cc1`, the “TSA(with NAD+) / Primary screening (TSA) / delta Tm (K)” value was -0.19 K.

`Cc1cc(C)c2cc(CN3CCC(C(N)=O)CC3)[nH]c2c1`: the “TSA(with NAD+) / Primary screening (TSA) / delta Tm (K)” value is -0.11 K.

`CCOC(=O)C(C)N1CCN(S(=O)(=O)c2cc(C(N)=O)n(C)c2)CC1` (centres unmarked): the “TSA(with NAD+) / Primary screening (TSA) / delta Tm (K)” value is reported as -0.12 K.

Turning to `C#CCNC(=O)c1ccc2[nH]c3c(c2c1)CCCC3`, the “TSA(with NAD+) / Primary screening (TSA) / delta Tm (K)” value was -0.38 K.

As for `NC(=O)CC1CCN(C(=O)c2ccn(-c3cccc(F)c3)n2)CC1`, the “TSA(with NAD+) / Primary screening (TSA) / delta Tm (K)” value is on record as -0.16 K.

For the compound `Cc1[nH]c(-c2cccc(Cl)c2)nc1C(=O)Nc1ccc(F)c(C(N)=O)c1`, the “TSA(with NAD+) / Primary screening (TSA) / delta Tm (K)” value is reported as -0.16 K.
